PubChem BioAssay AID602196, INSERM – 2012

- Screen: 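Knock-downs that protect lung cancer cells from cisplatin or sensitise them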
- Cells: human A549 lung cancer cells
- Reagents: siRNA pair against human genes
- Time to read-out: 48 h transfection before cisplatin; time from cisplatin to read-out not stated
- Challenge: cisplatin at a dose killing half of control-siRNA cells; exact dose and duration not given
- Measurement: 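Shift in cisplatin death relative to control siRNA, from -50 (all cells die) to +50 (no cells die); siRNAs harmful on their own scored 0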
- Scale: two-siRNA summed score (-2 to +2): higher = both siRNAs protect from cisplatin killing; -2 means both sensitise
- Rule for the call: 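siRNAs harmful alone (LDH or WST-1) get 0; others get +1 for less and -1 for more cisplatin killing; genes are active when the two siRNAs give the same sign, summing to ±2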
- Calls: active = both siRNAs shift cisplatin killing the same way; inactive = no consistent shift, or siRNA harmful alone
Here is an unselected part of about 23,000 deposited reagents. Over the whole deposit, 455 (2%) were called active. 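Active includes both protection and sensitisation; some change values fall well beyond the stated -50 to +50 range.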 Entries without a mark were called inactive. Further read-outs or replicates are left out here. Reagent sequences are not shown. Not stated in the record: the amount of reagent.

MAPT — two-siRNA summed score (-2 to +2) = 0
GPRC5C — two-siRNA summed score (-2 to +2) = 0
DNMT3L — two-siRNA summed score (-2 to +2) = -1
LOC152663 — two-siRNA summed score (-2 to +2) = 0
RECQL — two-siRNA summed score (-2 to +2) = -1
KLHL15 — two-siRNA summed score (-2 to +2) = 0
CALB1 — two-siRNA summed score (-2 to +2) = 0
ERAP2 — two-siRNA summed score (-2 to +2) = -1
LOC441840 — two-siRNA summed score (-2 to +2) = 0
FLJ00193 — two-siRNA summed score (-2 to +2) = 0
CES5A — two-siRNA summed score (-2 to +2) = -1
RASGRF2 — two-siRNA summed score (-2 to +2) = 0

Not a retest: an excerpt of the list.
CES5A — two-siRNA summed score (-2 to +2) = -1
RASGRF2 — two-siRNA summed score (-2 to +2) = 0
